# These are yes or no findings as the source states them, for the method shown. Some binding calls cover weakened binding; strength is not graded here.
# Target: Native calreticulin in the serum of bronchiectasis patients (human (endogenous in patient serum)) (UniProt P27797)
# Test: native gel or EMSA; sera of two bronchiectasis patients, reduced or alkylated, native PAGE (TGX precast gels), immunoblot with anti-CRT and anti-LPS
substance,measurement,value
Native calreticulin in the serum of bronchiectasis patients (from UniProt P27797 18-417),binding,binds

# — publication PMC6359024
